Laboratory results: PubChem BioAssay AID588590 (National Center for Advancing Translational Sciences (NCATS), 2011)
Out of some 390,000 compounds screened, about 4,000 (1%) were called active. Inconclusive results, whose numbers are uncertain, are shown with a selection of clear calls. Calls follow the shape of the dose curve; as a rule, active = well fitted inhibition curve with a large enough effect; inconclusive = small, poorly fitted or top-dose-only effect, or another doubt; inactive = no such curve, though single readings can be large or run the other way. Potencies beside an inconclusive call are fits to weak or partial responses and may not hold up.

Sequences of proteins named here, by UniProt entry; tags and fusion partners are left off. A change or cut given only in a name is not applied to a line headed by its entry.
UniProt Q9UNA4: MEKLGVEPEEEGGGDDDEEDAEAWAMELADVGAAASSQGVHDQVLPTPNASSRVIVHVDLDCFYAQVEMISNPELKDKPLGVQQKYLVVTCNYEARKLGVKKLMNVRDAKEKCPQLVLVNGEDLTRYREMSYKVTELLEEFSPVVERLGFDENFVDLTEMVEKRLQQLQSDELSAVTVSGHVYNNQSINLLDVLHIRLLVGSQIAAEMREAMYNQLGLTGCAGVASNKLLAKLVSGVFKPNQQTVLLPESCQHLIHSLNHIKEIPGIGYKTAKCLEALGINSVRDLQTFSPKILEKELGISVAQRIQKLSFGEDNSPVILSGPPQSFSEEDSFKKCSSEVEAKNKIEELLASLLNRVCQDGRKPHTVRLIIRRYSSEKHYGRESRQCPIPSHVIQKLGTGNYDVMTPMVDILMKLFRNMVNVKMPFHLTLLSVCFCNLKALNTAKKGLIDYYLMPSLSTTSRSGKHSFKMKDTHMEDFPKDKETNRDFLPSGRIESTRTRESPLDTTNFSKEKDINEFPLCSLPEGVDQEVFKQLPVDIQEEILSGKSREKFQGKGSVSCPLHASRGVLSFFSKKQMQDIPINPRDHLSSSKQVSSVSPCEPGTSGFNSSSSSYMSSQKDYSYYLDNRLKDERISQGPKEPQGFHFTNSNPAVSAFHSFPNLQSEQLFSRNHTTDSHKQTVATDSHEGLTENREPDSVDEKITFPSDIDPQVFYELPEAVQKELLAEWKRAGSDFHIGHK

Molecular target: DNA polymerase iota (Homo sapiens) (UniProt Q9UNA4)
Experiment: qHTS for Inhibitors of Polymerase Iota
Conditions: Pol iota fluorescent replication assay, 10 min; series mostly up to 115 µM
Procedure, shortened: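 Pol iota at 10 nM preincubated 15 min with compounds at room temperature; reaction started with fluorescent substrate, 50 nM final. Fluorescence read kinetically at 0 and 10 min; buffer-only wells as negative control.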
Potency is read from the fitted curve at half-maximal effect.

Structure (SMILES)	Potency
O=C(Nc1ccccc1)c1nc[nH]c1C(=O)NCCN(CCNC(=O)c1[nH]cnc1C(=O)Nc1ccccc1)CCNC(=O)c1[nH]cnc1C(=O)Nc1ccccc1	active: 79.4 µM
Cc1c(Cc2ccccc2)c(=O)oc2c(C)c(OCC(=O)N3CCC(C(=O)O)CC3)ccc12	inconclusive: 3.98 µM [inhibitor, partial curve, poor fit]
OC1(c2cccc(F)c2)CCN(Cc2ccncc2)CC1	inconclusive: 11.2 µM [inhibitor, partial curve, poor fit]
CCc1nc(SCc2cc(=O)c3cc(F)ccc3[nH]2)n[nH]1	inactive
CCCC1(C(=O)OCC)NC(c2ccc(N(C)C)cc2)C2C(=O)N(c3ccc(F)cc3)C(=O)C21 (stereo unspecified)	inconclusive: 39.8 µM [inhibitor, single point]
Cc1cc(N=Cc2c(O)n(-c3ccc4c(c3)OCO4)c(=O)c3ccccc23)ccn1	inconclusive: 20 µM [inhibitor, single point]
CSc1nnc(NC(=O)c2nc(S(=O)(=O)Cc3ccc(C)cc3)ncc2Cl)s1	inconclusive: 7.94 µM [inhibitor, full curve, poor fit]
O=C(NCc1cccnc1)c1ccc(COc2ccc(Cl)cc2Cl)o1	inconclusive: 89.1 µM [inhibitor, single point]
CCC(=O)OCCNc1cc(Sc2nc3ccccc3[nH]2)c2nonc2c1[N+](=O)[O-]	inconclusive: 50.1 µM [inhibitor, partial curve, poor fit]
CCN1C(=O)C2(C(C(=O)c3ccc(C)o3)=C(O)C(=O)N2CCCN(C)C)c2ccccc21 (stereo unspecified)	inconclusive: 8.91 µM [inhibitor, partial curve, poor fit]
CCc1ccc(-c2cc(C(=O)N/N=C/c3ccccn3)[nH]n2)cc1	inactive
O=C(COc1ccc(Cl)cc1)Nc1nc(-c2ccc(S(=O)(=O)N3CCOCC3)cc2)cs1	inconclusive: 11.2 µM [inhibitor, partial curve, poor fit]
COc1ccccc1/C=C1\SC(=S)N(CCC(=O)NNC(=O)c2ccccc2O)C1=O	inconclusive: 25.1 µM [inhibitor, single point]
CCOc1c(Br)cc(Br)cc1/C=C1\SC(N)=NC1=O	inconclusive: 100 µM [inhibitor, single point]
Cc1onc(-c2c(Cl)cccc2Cl)c1C(=O)N1CCCc2ccccc21	inconclusive: 89.1 µM [inhibitor, single point]
COc1ccc(C(=O)N2CCc3cc(OC)c(OC)cc3C2c2ccc(OC)c(OC)c2)cc1 (stereo unspecified)	inconclusive: 7.94 µM [inhibitor, full curve, poor fit]

Rewritten as a markdown table: entries from further up

| Structure (SMILES) | Potency |
| --- | --- |
| Cc1cc(N=Cc2c(O)n(-c3ccc4c(c3)OCO4)c(=O)c3ccccc23)ccn1 | inconclusive: 20 µM [inhibitor, single point] |
| CSc1nnc(NC(=O)c2nc(S(=O)(=O)Cc3ccc(C)cc3)ncc2Cl)s1 | inconclusive: 7.94 µM [inhibitor, full curve, poor fit] |
